This is an account of results in PMC3900716.

This assay addresses T1, GST-tagged human Cbl-c (human) (UniProt Q9ULV8).
T1 sequence: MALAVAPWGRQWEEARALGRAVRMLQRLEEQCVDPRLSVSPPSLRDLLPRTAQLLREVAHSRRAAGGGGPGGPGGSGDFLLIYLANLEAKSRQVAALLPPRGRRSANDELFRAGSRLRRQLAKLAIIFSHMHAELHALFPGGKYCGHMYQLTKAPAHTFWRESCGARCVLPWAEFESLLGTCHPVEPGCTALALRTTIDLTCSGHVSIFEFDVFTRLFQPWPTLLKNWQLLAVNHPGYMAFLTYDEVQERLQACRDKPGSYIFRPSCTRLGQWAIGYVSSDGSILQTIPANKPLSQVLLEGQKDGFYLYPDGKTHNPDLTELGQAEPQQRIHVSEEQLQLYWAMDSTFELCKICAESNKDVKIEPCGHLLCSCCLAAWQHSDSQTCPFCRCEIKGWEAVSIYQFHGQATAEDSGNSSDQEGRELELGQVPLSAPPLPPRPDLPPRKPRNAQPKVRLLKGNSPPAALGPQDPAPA
As to the kind of experiment: pull-down; GST pull-down on Glutathione Sepharose 4B from 300 µg whole cell lysate of co-transfected HEK293T cells, overnight at 4°C, five washes in lysis buffer (10 mM Tris-HCl pH 7.5, 150 mM NaCl, 5 mM EDTA, 1% Triton X-100), immunoblot; in Figure 2B cells with 500 µM Sorafenib or DMSO for 90 min before lysis.

These are yes or no findings as the source states them, for the method shown. In cells and extracts the contact can be indirect. Binding can be weak; no strength is given. Where a sequence is shown, tags or fusion partners need not be part of it.

“FLAG-Enigma ΔLIM2-3 (human) (domain or fragment)”: the binding result was “binds”.

For the substance “FLAG-Enigma ΔLIM3 (human) (domain or fragment)”, the binding entry is listed as “binds”.
